According to article PMC4976663:
These are yes or no findings as the source states them, for the method shown. Binding seen in cells or lysates may run through a third protein. A result given as binding can be weak or reduced; the word gives no strength. Where a sequence is shown, tags or fusion partners need not be part of it.

By UniProt entry, the sequences of proteins in these tests, tags left out. Where a name states a change or a piece, a line headed by the entry shows the natural chain unless it says otherwise.
UniProt Q99P50: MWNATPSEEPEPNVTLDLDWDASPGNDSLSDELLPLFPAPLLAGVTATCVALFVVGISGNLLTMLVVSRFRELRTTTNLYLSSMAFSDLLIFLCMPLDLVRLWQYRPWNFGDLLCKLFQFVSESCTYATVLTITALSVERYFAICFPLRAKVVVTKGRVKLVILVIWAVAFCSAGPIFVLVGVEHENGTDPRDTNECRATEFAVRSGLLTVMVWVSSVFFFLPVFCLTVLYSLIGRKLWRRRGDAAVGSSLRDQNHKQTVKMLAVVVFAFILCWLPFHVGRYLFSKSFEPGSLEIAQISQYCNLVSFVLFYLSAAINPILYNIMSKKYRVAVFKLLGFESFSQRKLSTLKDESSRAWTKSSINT

Molecular target: growth hormone secretagogues receptor (GHSR) as tested with RNF11 in Figure S1 (not stated (human or mouse cDNA cloned)) (UniProt Q99P50)
Experiment: split reporter; YFP-BiFc with full-length genes in transfected HEK293 cells; YFP-fluorescent cells counted by flow cytometry (FACS Canto II), 50,000 cells per sample; values of both tag orientations (YFP1/YFP2) combined

B1: ring finger protein 11 (RNF11), murine, full length, fused to a YFP fragment (protein, UniProt Q9QYK7 1-154)
chain: MGNCLKSPTSDDISLLHESQSDRASFGEGTEPDQEPPPPYQEQVPVPIYHPTPSQTRLATQLTEEEQIRIAQRIGLIQHLPKGVYDPGRDGSEKKIRECVICMMDFVYGDPIRFLPCMHIYHLDCIDDWLMRSFTCPSCMEPVDAALLSSYETN
Question: With B1 as the binder, how does the binding read?
Answer: binds
